PMC12430079, “Comprehensive UPLC-MS/MS Method for Quantifying Four Key Intestinal Permeability Markers in Caco-2 Models” (Molecules, 2025)

Test: physchem
Settings: Recovery under stability condition
Protocol: These tests included assessing short-term stability at room temperature, long-term stability during storage at −20 °C for up to 45 days, and stability across three freeze-thaw cycles. Additionally, the stability of the analytes was tested in the media used for intestinal permeability assays, specifically HBSS with MES and HEPES buffers at pH 6.0 and 7.4.

Q: With `CC(C)NCC(O)COc1ccc(CC(N)=O)cc1` (centres unmarked) [Atenolol, atenolol] as the molecule, how does the recovery read?
A: Its recovery is 85.5 ± 2.8%.

Q: And the recovery at 36 d?
A: Its recovery at 36 d is 86.2 ± 5.12%.
